Results are given in words; binding and its absence hold for the method and conditions named. Binding seen in cells or lysates may run through a third protein. A yes stands for co-enrichment or nearness to the bait. Other partners may have been found.

The chains behind the UniProt entries cited, without tags or fusion partners. Where a name states a change or a piece, a line headed by the entry shows the natural chain unless it says otherwise.
UniProt Q9LY34: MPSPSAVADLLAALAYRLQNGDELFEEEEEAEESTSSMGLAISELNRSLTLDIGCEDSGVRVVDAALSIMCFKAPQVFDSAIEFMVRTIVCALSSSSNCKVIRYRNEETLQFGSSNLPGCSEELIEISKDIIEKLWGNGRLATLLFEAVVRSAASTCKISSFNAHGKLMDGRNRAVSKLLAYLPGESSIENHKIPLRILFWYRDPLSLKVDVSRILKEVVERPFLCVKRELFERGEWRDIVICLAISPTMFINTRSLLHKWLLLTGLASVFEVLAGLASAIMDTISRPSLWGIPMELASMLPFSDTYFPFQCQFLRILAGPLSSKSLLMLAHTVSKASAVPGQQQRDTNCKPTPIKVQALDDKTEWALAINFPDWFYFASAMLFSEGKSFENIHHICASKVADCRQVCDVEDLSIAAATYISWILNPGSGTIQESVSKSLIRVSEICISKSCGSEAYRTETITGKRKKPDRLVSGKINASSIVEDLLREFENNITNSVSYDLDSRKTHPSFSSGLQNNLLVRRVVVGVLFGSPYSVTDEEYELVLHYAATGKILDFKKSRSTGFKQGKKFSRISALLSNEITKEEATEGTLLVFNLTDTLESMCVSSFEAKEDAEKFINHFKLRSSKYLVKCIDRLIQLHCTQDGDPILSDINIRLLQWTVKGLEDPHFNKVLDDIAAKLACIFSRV

This passage reports binding results from PMC10085685.

First the molecules themselves.
B1: MHF2 (AT1G78790), co-purified from Arabidopsis cells (protein, UniProt Q8L7N3 1-104)
chain: MDANNTFDSDLIHAIFKHIWARRFRERERSDAIDATEAEVALGTTKKNRLASANANALKLSCELLKSFVSEAVQRAAIIAEAEGMEKIEATHLERILPQLLLDF
B2: FANCM (AT1G35530), co-purified from Arabidopsis cells (protein, UniProt I3XHK1 1-1344)
chain: MGSRVPIETIEEDGEFDWEAAVKEIDLACLKTTNASSSSSSHFTPLANPPITANLTKPPAKRQSTLDKFIGRTEHKPENHQVVSECGVNDNDNSPLVGIDPEAAKTWIYPVNGSVPLRDYQFAITKTALFSNTLVALPTGLGKTLIAAVVMYNYFRWFPQGKIVFAAPSRPLVMQQIEACHNIVGIPQEWTIDLTGQTCPSKRAFLWKSKRVFFVTPQVLEKDIQSGTCLTNYLVCLVIDEAHRALGNYSYCVVVRELMAVPIQLRILALTATPGSKTQAIQGIIDNLQISTLEYRNESDHDVCPYVHDRKLEVIEVPLGQDADDVSKRLFHVIRPYAVRLKNFGVNLNRDIQTLSPHEVLMARDKFRQAPLPGLPHVNHGDVESCFAALITLYHIRKLLSSHGIRPAYEMLEEKLKEGPFARLMSKNEDIRMTKLLMQQRLSHGAPSPKLSKMLEILVDHFKVKDPKTSRVIIFSNFRGSVRDIMNALSNIGDMVKATEFIGQSSGKTLKGQSQKIQQAVLEKFRAGGFNVIVATSIGEEGLDIMEVDLVICFDANVSPLRMIQRMGRTGRKNNGRVVVLACEGSEKNSYMRKQASGRAIKKHMRNGGTNSFNFHPSPRMIPHVYKPEVQHVEFSIKQFVPRGKKLQEEYATETPAFQKKLTPAETHMLAKYYNNPDEEKLRVSLIAFPHFQTLPSKVHKVMHSRQTGMLIDAMQHLQEPTFSEQSKSFFTEFRAPLGEREELDTGLRVTNDPKDLHSVRDLEVNTSQRKAKQVESPTSTLETTEKDYEESSPTHRYLFSSECASVDTLGNVFVMPVPLLFFPNVLESDNTPLPKTEKQHSCRNTSHIDLVPVDTSEKHRQDNISCKLKERFSPDGASETLETHSLVKRNSTRVGEDDVANSVGEIVLSSDEDDCEGLELSPRLTNFIKSGIVPESPVYDQGEANREEDLEFPQLSSPMRFSNELAGESSFPERKVQHKCNDYNIVSTTTELRTPQKEVGLANGTECLAVSPIPEDWRTPLANLTNTNSSARKDWRVSSGEKLETLRQPRKLKRLRRLGDCSSAVKENYPGITEADHIRSRSRGKKHIRGKKKMIMDDDVQVFIDEEAEVSSGAEMSADENEDVTGDSFEDSFIDDGTMPTANTQAESGKVDMMAVYRRSLLSQSPLPARFRDLAASSLSPYSAGPLTRINESRSDSDKSLSSLRTPKTTNSESNQDAMMIGNLSVVQISSDSRKRKFSLCNSANAPVINLESKFAAHAQATEKESHEGVRSNAGALEYNDDDDDAFFATLDFDAMEAQATLLLSKQRSEAKEKEDATVIPNPGMQRSDGMEKDAPSFDLGLW
B3: FANCE (AT4G29560), co-purified from Arabidopsis cells (protein, UniProt Q9SU89 1-493)
chain: MEEWIPLFDIFLKSPSPEAEASLWLDQASNLFSSSSSAAAPINRSSFVSLLKKQCDQNSSPVTKKVLFIETLPNMVQSKILSFLLFEYQRFCVSDLVWLAREMLGSGGNKVVDFWVQRDAHNLLDRIPKPKFEWISNLDLDSADEDSMKQVFDSVPDWLSEKLGSAGTILPWLPVSCDDVDSEMLVVDSWNGKEITQIKEDMEEDQREVVHNIDHTMTVGLQAHDHEMAVNLRAQISNFESTSEVLTLCNDIRRLCLEKGKDSLRVLALIEPWNADDETAAVLLSSLHNGSEEEELGWPSHVLCSIVLPKFLSLEKSASRVLMSSTIEFCKIHQRAAEYALVFPLILRKEGINNFICEVISRVLKECLHLGQISGFCQKLLCGRTQERRFMFLPCHRDLISDELTWNEYLFILFQNILIHGIPLSQDSVDCLVSKVQELAERYSKSLKFGNFLLHFTAKCAPMLQAHKYQLIESVKCTNSLVTKSILSKLNAL

For the assay, the target named is C-terminal GSrhino-tagged FANCC (At3g60310/AtFANCC) (Arabidopsis thaliana) (UniProt Q9LY34). As to the kind of experiment: affinity purification with mass spectrometry; GSrhino-tagged FANCC overexpressed as bait in Arabidopsis cell suspension culture; pull-down, on-bead digestion, Q Exactive mass spectrometer; three replicates; filtered against a list of non-specific proteins.
Turning to B1, the binding result is listed as “binds”.
The value for B2 was “binds”; that for B3 was “binds”.
